Test results taken from paper PMC7610337.
Results are given in words; binding and its absence hold for the method and conditions named. In cells and extracts the contact can be indirect. Some results given as binding are weak or reduced against the parent protein; the word gives no strength.

Protein sequences, listed by entry. Tags and fused reporters are not part of them. Residues count along the entry.
UniProt P08069, residues 31-1367: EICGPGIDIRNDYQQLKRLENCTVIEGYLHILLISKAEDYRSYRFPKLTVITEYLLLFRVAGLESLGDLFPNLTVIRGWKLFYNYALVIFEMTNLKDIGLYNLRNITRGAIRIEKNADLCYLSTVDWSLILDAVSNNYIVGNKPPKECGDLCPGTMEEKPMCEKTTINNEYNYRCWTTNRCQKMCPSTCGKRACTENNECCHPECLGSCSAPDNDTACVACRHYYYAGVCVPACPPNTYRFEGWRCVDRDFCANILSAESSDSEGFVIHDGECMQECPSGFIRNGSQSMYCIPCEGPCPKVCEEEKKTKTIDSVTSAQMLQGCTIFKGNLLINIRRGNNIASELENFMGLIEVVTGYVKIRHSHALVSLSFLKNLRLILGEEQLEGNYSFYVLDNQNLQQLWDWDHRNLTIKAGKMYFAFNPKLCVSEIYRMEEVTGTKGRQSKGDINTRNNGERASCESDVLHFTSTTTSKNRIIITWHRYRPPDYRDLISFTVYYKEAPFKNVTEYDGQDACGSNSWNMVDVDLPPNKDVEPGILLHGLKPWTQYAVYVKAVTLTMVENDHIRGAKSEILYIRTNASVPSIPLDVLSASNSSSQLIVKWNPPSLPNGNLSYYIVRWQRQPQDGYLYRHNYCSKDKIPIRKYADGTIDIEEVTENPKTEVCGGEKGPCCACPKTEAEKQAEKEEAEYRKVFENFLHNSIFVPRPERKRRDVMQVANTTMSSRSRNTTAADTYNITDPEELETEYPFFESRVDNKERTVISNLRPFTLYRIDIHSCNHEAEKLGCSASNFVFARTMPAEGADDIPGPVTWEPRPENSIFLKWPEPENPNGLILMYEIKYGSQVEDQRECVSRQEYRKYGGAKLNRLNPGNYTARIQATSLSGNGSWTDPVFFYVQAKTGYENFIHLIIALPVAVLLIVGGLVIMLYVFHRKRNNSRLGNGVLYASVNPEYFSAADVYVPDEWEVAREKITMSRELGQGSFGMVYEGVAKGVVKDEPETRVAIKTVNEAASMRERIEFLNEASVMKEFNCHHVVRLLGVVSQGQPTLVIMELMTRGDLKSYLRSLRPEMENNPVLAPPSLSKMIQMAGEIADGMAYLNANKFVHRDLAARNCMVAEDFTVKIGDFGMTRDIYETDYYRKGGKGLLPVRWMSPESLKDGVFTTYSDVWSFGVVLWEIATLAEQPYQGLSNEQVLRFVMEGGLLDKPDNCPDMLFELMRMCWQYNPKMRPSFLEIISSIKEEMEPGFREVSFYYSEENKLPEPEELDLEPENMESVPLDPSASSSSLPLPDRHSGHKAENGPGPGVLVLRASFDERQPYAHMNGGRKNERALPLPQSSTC
UniProt Q60751, residues 31-1373: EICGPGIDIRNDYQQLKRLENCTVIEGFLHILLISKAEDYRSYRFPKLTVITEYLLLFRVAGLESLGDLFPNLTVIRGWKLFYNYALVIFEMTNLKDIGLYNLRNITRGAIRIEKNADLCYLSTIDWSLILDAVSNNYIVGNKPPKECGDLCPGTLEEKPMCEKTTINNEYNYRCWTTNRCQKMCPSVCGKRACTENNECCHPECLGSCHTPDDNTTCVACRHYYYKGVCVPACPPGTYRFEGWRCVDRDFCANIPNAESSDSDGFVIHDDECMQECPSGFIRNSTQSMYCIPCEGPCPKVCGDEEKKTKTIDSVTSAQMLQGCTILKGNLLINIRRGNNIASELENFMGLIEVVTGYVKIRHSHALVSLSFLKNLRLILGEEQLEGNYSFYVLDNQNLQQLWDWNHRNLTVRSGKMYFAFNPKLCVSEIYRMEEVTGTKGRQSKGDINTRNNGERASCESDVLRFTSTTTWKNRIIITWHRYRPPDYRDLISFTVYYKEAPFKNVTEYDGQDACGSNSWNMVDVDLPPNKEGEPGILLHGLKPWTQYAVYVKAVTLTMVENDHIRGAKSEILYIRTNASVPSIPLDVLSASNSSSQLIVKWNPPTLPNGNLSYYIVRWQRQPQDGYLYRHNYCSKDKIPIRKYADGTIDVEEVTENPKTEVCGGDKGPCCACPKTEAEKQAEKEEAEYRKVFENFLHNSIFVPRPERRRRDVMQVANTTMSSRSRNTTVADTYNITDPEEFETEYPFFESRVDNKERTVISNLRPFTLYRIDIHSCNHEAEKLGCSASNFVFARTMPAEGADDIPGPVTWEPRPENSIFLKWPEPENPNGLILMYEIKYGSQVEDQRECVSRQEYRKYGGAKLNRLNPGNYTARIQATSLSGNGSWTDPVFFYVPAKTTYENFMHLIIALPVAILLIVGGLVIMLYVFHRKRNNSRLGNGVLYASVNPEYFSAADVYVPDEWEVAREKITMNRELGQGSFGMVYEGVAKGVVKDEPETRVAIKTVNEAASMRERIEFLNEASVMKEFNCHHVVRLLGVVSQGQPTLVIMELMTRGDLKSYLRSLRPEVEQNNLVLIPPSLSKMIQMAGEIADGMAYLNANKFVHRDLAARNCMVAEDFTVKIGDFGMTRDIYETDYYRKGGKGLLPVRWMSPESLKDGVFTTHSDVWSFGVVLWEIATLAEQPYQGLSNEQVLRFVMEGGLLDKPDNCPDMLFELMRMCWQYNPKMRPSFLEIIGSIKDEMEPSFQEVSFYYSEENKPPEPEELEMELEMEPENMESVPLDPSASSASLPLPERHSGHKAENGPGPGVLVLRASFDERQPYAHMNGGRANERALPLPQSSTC
UniProt P16234, residues 24-1089: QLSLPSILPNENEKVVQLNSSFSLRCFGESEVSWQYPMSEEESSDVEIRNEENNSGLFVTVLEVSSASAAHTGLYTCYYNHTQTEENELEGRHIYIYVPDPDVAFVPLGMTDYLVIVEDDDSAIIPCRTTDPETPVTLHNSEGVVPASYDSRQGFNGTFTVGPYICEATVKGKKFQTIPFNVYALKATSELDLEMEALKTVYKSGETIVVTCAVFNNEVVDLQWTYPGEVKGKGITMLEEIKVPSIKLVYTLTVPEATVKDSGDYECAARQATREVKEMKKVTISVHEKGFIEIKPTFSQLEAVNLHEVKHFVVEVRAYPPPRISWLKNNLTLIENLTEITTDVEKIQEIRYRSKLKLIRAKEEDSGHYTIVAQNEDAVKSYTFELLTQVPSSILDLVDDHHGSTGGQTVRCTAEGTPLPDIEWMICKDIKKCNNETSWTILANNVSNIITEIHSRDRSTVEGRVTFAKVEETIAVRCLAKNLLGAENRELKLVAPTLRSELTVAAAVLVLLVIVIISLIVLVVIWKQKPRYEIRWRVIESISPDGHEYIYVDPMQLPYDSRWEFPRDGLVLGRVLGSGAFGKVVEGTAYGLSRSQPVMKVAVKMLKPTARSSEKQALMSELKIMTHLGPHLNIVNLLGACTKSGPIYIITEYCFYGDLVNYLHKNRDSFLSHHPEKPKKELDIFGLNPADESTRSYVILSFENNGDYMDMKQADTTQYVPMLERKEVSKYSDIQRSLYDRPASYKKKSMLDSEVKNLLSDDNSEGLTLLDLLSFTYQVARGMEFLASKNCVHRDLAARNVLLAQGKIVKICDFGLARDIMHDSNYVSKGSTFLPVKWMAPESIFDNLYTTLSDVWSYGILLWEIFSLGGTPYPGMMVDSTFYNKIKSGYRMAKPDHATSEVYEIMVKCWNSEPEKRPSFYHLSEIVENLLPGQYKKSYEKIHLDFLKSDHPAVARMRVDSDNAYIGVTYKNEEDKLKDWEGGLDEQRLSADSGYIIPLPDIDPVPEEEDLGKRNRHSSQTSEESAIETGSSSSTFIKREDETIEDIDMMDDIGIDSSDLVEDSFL
UniProt P26618, residues 25-1089: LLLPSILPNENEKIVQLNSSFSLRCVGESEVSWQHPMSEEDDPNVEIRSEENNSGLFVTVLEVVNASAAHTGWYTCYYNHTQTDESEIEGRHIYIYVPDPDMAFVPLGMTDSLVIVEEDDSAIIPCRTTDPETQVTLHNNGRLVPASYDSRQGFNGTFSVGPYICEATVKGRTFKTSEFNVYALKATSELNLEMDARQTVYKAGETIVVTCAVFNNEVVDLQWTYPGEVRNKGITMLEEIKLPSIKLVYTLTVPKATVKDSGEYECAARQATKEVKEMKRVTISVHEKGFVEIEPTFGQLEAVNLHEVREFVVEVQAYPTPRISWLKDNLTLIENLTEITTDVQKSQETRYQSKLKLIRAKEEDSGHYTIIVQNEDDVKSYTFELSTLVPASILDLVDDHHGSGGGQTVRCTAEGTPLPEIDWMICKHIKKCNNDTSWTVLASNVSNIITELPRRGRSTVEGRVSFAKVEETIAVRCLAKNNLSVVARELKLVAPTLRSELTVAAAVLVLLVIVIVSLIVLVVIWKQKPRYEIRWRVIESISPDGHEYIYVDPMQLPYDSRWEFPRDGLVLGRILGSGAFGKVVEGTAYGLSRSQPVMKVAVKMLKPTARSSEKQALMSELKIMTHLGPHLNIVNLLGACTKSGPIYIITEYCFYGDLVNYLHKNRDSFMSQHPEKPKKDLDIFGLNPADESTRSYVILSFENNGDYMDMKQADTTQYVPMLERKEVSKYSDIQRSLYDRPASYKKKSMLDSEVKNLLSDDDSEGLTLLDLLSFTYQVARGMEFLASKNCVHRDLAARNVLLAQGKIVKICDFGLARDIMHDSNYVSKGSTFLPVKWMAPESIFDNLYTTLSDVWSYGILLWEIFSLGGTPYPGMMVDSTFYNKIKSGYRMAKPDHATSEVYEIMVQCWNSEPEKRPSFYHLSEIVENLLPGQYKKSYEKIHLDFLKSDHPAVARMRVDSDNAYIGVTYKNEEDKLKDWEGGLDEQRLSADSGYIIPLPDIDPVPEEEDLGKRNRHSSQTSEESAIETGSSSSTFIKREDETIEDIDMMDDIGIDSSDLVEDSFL

Tests used:
[1] = target: human IGF1R, exogenously expressed (human) (UniProt P08069); assay: co-IP; exogenous PDGFRα and IGF1R co-expressed in HEK293(FT) cells; lysis in Beyotime cell lysis buffer for Western and IP with protease and phosphatase inhibitors; lysate precleared with mouse IgG and Protein A/G PLUS-Agarose; which receptor was precipitated is not given
[2] = target: mouse IGF1R, exogenously expressed (mouse) (UniProt Q60751); assay: as above

| binding [1] | binding [2] | Substance |
| --- | --- | --- |
| binds |  | human PDGFRα, exogenously expressed (from UniProt P16234 24-1089) (receptor) |
|  | binds | mouse PDGFRα, exogenously expressed (from UniProt P26618 25-1089) (receptor) |
